From publication PMC10831259 come the findings set out here.

By UniProt entry, the sequences of proteins in these tests, tags left out.
UniProt P09211: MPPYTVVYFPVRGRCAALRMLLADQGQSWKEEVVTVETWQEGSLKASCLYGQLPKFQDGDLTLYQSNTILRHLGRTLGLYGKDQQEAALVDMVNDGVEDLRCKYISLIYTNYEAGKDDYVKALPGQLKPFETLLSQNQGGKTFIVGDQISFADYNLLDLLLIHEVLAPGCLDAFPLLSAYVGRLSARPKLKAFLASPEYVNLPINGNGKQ
UniProt P19157: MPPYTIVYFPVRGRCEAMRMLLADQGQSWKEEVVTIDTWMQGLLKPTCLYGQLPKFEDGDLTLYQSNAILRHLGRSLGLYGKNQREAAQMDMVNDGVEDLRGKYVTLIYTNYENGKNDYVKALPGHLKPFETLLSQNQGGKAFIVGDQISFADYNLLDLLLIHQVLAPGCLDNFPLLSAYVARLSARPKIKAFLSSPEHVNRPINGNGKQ

No constants are given. Whether binding was seen depends on the method and setting. In cells and extracts the contact can be indirect. Some results given as binding are weak or reduced against the parent protein; the word gives no strength.

Assay [1] deals with T1, Kindlin-2 (mouse (endogenous in liver tissue)) (UniProt Q8CIB5).
T1 sequence: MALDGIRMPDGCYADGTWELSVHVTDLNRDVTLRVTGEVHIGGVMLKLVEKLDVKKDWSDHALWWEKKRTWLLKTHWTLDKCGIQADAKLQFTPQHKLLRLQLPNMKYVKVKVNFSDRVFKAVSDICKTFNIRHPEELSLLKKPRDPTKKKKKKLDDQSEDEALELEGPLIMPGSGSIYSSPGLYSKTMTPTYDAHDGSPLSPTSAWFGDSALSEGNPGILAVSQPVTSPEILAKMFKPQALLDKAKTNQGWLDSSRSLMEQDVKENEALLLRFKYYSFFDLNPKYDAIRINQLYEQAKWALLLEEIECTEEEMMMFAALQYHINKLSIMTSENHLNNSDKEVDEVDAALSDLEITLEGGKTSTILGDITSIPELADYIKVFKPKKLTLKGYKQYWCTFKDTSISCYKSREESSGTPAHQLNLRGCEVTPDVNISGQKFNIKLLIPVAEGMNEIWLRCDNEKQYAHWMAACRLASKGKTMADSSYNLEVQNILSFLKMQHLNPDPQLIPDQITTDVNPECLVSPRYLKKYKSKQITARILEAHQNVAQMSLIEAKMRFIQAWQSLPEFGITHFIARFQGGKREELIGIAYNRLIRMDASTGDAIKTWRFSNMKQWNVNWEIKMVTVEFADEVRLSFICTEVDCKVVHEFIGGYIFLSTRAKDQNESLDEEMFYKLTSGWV
Kind of assay: co-IP; liver tissue lysates, immunoprecipitation with the indicated antibodies at 4 °C overnight, immunoblotting; called a pull-down assay in the text.

For the next assay, the target named is FLAG-tagged GSTP1 (UniProt P09211). Kind of assay: co-IP; lysates of HEK293T cells transfected with FLAG-tagged GSTP1 and/or V5-tagged Kindlin-2 (full-length or truncated Kindlin-2 in panel H, extracts 48 h after cotransfection), IP and IB with the indicated antibodies.
A further assay concerns the target V5-tagged Kindlin-2 (UniProt Q96AC1). The description is as above.
The target in assay [2] is endogenous GSTP1 (human (endogenous in Huh7)) (UniProt P09211). As to the kind of experiment: co-IP; Huh7 cells, endogenous proteins, IP with anti-Kindlin-2 or anti-GSTP1 antibody and IB.

As to “glutathione-S-transferase P1 (from UniProt P19157 1-210)”, the binding result in assay [1] is “binds”.

Regarding “V5-tagged Kindlin-2 (from UniProt Q96AC1 1-680)”, the binding result with FLAG-tagged GSTP1 was “binds”.

For the substance “FLAG-tagged GSTP1 (from UniProt P09211 1-210)”, the binding entry with V5-tagged Kindlin-2 is on record as “binds”.

On to “endogenous Kindlin-2 (from UniProt Q96AC1 1-680)”, for which the binding result in assay [2] is listed as “binds”.
